{"source": "the supplement of paper PMC12024529", "key": {"HEK293 WT BDD-FVIII-Gluc": {"system": "HEK293 WT BDD-FVIII-Gluc", "assay": "secreted FVIII-Gluc luciferase Z-score vs DMSO control; higher = more FVIII-Gluc secretion", "conditions": "5 µM; 24 h"}, "[1]": {"system": "HEK293 p.N1941S BDD-FVIII-Gluc", "assay": "secreted FVIII-Gluc luciferase Z-score vs DMSO control; higher = more FVIII-Gluc secretion", "conditions": "5 µM; 24 h"}}, "note": "Where a name gives a salt, the structure may show the parent alone. This is one part of the list. Baselines shift from plate to plate; read single values as rough.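 Wild-type or misfolding-prone missense mutant B-domain-deleted factor VIII, fused to Gaussia luciferase, is stably expressed in HEK293 lines. Each score is (mean triplicate-well luminescence minus DMSO mean) divided by DMSO standard deviation. Hits score at least 2; lower scores could stem from decreased secretion or poorer cell viability.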"}
{"smiles": "Cc1cn(-c2cc(NC(=O)c3ccc(C)c(Nc4nccc(-c5cccnc5)n4)c3)cc(C(F)(F)F)c2)cn1", "note": "[Nilotinib (AMN-107)]", "values": [{"measurement": "secreted FVIII-Gluc luciferase Z-score", "setting": "HEK293 WT BDD-FVIII-Gluc", "result": "inactive: -1.23"}, {"measurement": "secreted FVIII-Gluc luciferase Z-score", "setting": "[1]", "result": "inactive: -5.61"}]}
{"smiles": "Cc1ccc(C(=O)C(C)CN2CCCCC2)cc1", "note": "(stereo not drawn) [Tolperisone HCl]", "values": [{"measurement": "secreted FVIII-Gluc luciferase Z-score", "setting": "HEK293 WT BDD-FVIII-Gluc", "result": "inactive: 0.602"}, {"measurement": "secreted FVIII-Gluc luciferase Z-score", "setting": "[1]", "result": "inactive: -0.276"}]}
{"smiles": "Cc1cc2c(s1)Nc1ccccc1N=C2N1CCN(C)CC1", "note": "[Olanzapine (Zyprexa)]", "values": [{"measurement": "secreted FVIII-Gluc luciferase Z-score", "setting": "HEK293 WT BDD-FVIII-Gluc", "result": "inactive: 0.994"}, {"measurement": "secreted FVIII-Gluc luciferase Z-score", "setting": "[1]", "result": "inactive: -5.78"}]}
{"smiles": "CC(C)(C)C(=O)OCOP(=O)(COCCn1cnc2c(N)ncnc21)OCOC(=O)C(C)(C)C", "note": "[Adefovir Dipivoxil (Preveon, Hepsera)]", "values": [{"measurement": "secreted FVIII-Gluc luciferase Z-score", "setting": "HEK293 WT BDD-FVIII-Gluc", "result": "inactive: -7.68"}, {"measurement": "secreted FVIII-Gluc luciferase Z-score", "setting": "[1]", "result": "inactive: -4.3"}]}
{"smiles": "O=C(O)c1cccnc1Nc1cccc(C(F)(F)F)c1", "note": "[Niflumic acid]", "values": [{"measurement": "secreted FVIII-Gluc luciferase Z-score", "setting": "HEK293 WT BDD-FVIII-Gluc", "result": "active: 2.11"}, {"measurement": "secreted FVIII-Gluc luciferase Z-score", "setting": "[1]", "result": "inactive: -0.0255"}]}
{"smiles": "CCN1CCN(C(=O)N[C@@H](C(=O)N[C@@H]2C(=O)N3C(C(=O)O)=C(CSc4nnnn4C)CS[C@H]23)c2ccc(O)cc2)C(=O)C1=O", "note": "[Cefoperazone (Cefobid)]", "values": [{"measurement": "secreted FVIII-Gluc luciferase Z-score", "setting": "HEK293 WT BDD-FVIII-Gluc", "result": "inactive: -1.13"}, {"measurement": "secreted FVIII-Gluc luciferase Z-score", "setting": "[1]", "result": "inactive: 0.259"}]}
{"smiles": "CCCCCCCN(CC)CCCC(O)c1ccc(NS(C)(=O)=O)cc1", "note": "(stereo not drawn) [Ibutilide fumarate]", "values": [{"measurement": "secreted FVIII-Gluc luciferase Z-score", "setting": "HEK293 WT BDD-FVIII-Gluc", "result": "inactive: 0.0971"}, {"measurement": "secreted FVIII-Gluc luciferase Z-score", "setting": "[1]", "result": "inactive: -0.0269"}]}
{"smiles": "CC(C)OC(=O)C(C(=O)OC(C)C)=C1SC=CS1", "note": "[Malotilate]", "values": [{"measurement": "secreted FVIII-Gluc luciferase Z-score", "setting": "HEK293 WT BDD-FVIII-Gluc", "result": "inactive: 0.33"}, {"measurement": "secreted FVIII-Gluc luciferase Z-score", "setting": "[1]", "result": "inactive: -2.82"}]}
{"smiles": "CCOC(=O)C1=C(C)NC(C)=C(C(=O)OC)C1c1cccc([N+](=O)[O-])c1", "note": "(stereo not drawn) [Nitrendipine]", "values": [{"measurement": "secreted FVIII-Gluc luciferase Z-score", "setting": "HEK293 WT BDD-FVIII-Gluc", "result": "inactive: -0.863"}, {"measurement": "secreted FVIII-Gluc luciferase Z-score", "setting": "[1]", "result": "inactive: -1.11"}]}
{"smiles": "O=C(CCCN1CC=C(n2c(=O)[nH]c3ccccc32)CC1)c1ccc(F)cc1", "note": "[Droperidol]", "values": [{"measurement": "secreted FVIII-Gluc luciferase Z-score", "setting": "HEK293 WT BDD-FVIII-Gluc", "result": "inactive: 0.419"}, {"measurement": "secreted FVIII-Gluc luciferase Z-score", "setting": "[1]", "result": "inactive: -1.4"}]}
{"smiles": "N=C(N)NS(=O)(=O)c1ccc(N)cc1", "note": "[Sulfaguanidine]", "values": [{"measurement": "secreted FVIII-Gluc luciferase Z-score", "setting": "HEK293 WT BDD-FVIII-Gluc", "result": "inactive: 1.67"}, {"measurement": "secreted FVIII-Gluc luciferase Z-score", "setting": "[1]", "result": "inactive: 1.04"}]}
{"smiles": "CC(C)(C)CC(C)(C)c1ccc(OCCOCC[N+](C)(C)Cc2ccccc2)cc1", "note": "[Benzethonium chloride]", "values": [{"measurement": "secreted FVIII-Gluc luciferase Z-score", "setting": "HEK293 WT BDD-FVIII-Gluc", "result": "inactive: -2.48"}, {"measurement": "secreted FVIII-Gluc luciferase Z-score", "setting": "[1]", "result": "inactive: -0.901"}]}
{"smiles": "CCC[C@@H]1C[C@@H](C(=O)N[C@@H]([C@H]2O[C@H](SC)[C@H](O)[C@@H](O)[C@H]2O)[C@H](C)Cl)N(C)C1", "note": "[Clindamycin]", "values": [{"measurement": "secreted FVIII-Gluc luciferase Z-score", "setting": "HEK293 WT BDD-FVIII-Gluc", "result": "inactive: -2.43"}, {"measurement": "secreted FVIII-Gluc luciferase Z-score", "setting": "[1]", "result": "inactive: 0.259"}]}
{"smiles": "Cc1cc(-n2c(=O)[nH]c(=O)n(C)c2=O)ccc1Oc1ccc(SC(F)(F)F)cc1", "note": "[toltrazuril]", "values": [{"measurement": "secreted FVIII-Gluc luciferase Z-score", "setting": "HEK293 WT BDD-FVIII-Gluc", "result": "inactive: -0.327"}, {"measurement": "secreted FVIII-Gluc luciferase Z-score", "setting": "[1]", "result": "inactive: -1.79"}]}
